Among the data in PubChem BioAssay AID1508600 (Functional Genomics Laboratory (NCATS/FGL), 2020) are z-score values, retold here.

Among all 53,000 sequences or so, about 3,700 (7%) were called active.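 How the source made its calls: active means gene knockdowns whose robust z-score for IL-1 alpha signal is at least 2 or at most -2, so actives lie on both sides; inactive means the rest.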 Some of the results follow.

This test is described as follows: Components of the Cytosolic LPS Sensing Pathway: Gene Identification via Genome-wide siRNA Screen.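 Further: robust z of the log signal after scaling to non-targeting control siRNA wells of the plate.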 The following applies: RAW264.7 macrophages, IL-1a HTRF, actives lie on both sides, screened at 100 nM (by protocol), cells primed 5 h with Pam3CSK4 first. The method, boiled down:
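Knockdown: 100 nM siRNA, 48h, RAW264.7. Stimulation: Pam3CSK4 5 h, then LipidA via TransIT-TKO 24 h. Output: supernatant IL-1a HTRF, negative-control-normalized, log robust z-score; viability by CellTiter-Glo.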
For orientation: TR-FRET usually uses a lanthanide donor and a delayed reading to cut background.
With CCCAGCAGAAUAACUGCCATT against Pantr1, the z-score is active: 2.55.
On to GGAGAAGAAGCUGGACCAGTT against Atp5o, for which the z-score is inactive: 0.348.
For the sequence GGCAAGAAAGUCAUUAGCUTT against Mocs2, the z-score was inactive: -0.305.
The value for CCGAUGUCUGAUAGUACAUTT against C3ar1 was inactive: 1.61; that for GGAUCAUAAAAAGAAUCACTT against Gpr21 was inactive: 0.851; that for GGGAAUAAAAAGGAUCACUTT against Rab39 was inactive: 1.27.
The result for GGUGUGUUUUUGCUUCUCUTT against Tmem9b reads inactive: -0.678.
The result for CCUGGUUAUCCAUUAGUGGTT against Tatdn2 reads inactive: -0.874; that for CCCAGCAACUACUGGAAACTT against Tas2r139, inactive: -0.293.
Take GGUAUUUGGAGUACCCUUUTT against Arhgap11a: the z-score was inactive: 0.196.
The value for GGGUUGAAAAGAGGUGUCUTT against Cacng8 was inactive: -1.82; that for CCAGGUGAGGUUGCUUAACTT against Bri3bp was inactive: -1.11.
As for GGACCGCUACUAUUCAGGATT against Myh10, the z-score is inactive: 0.93.
Turning to GGAUUCCCGUACAACCAACTT against Sppl2c, the z-score is inactive: -1.2.
The value for GCGUGGCCGUCAAAGAGUATT against Basp1 was inactive: 1.38; that for CCUAGCUGAGGUGAACAACTT against Spr was inactive: 0.507; that for GGAUUUUACAGUUUUUGGATT against Pccb was inactive: 1.01.
The value for CCAUAUGCAAGGAAUCUGCTT against Adam26a was inactive: -1.03.
Take CCUUAAACUAGAAUUGUGUTT against Grap2: the z-score was inactive: -0.197.
Take GAUUUUCUUUGUUCAUCUCTT against Olfr727: the z-score was inactive: -0.535.
Regarding GGUAUAAACUCUAAAUGCUTT against Tpk1, the z-score is inactive: -0.0384.
In the case of GCGCAAGAUUCUCCAGCUUTT against Qars, the z-score was inactive: -1.38.
For CCGUUGGAGUCCAACCUAUTT against Ube2a, the z-score is active: 2.2.
As to GCCGGCUGUAUUCAGUACGTT against Hoxc9, the z-score was active: 3.06.
For the sequence “GCUUCAACUCUUUUCAGAGTT against F830208F22Rik”, the z-score was inactive: 0.884.
On to GGAUCAGGACAAUGAACUGTT against Ap1s2, for which the z-score is inactive: 0.294.
The result for GGAUCCUAGAGUUUGAGAATT against Ift22 reads inactive: 0.222; that for CCCUCCAAGAUAGAAGCGGTT against Efcab11, inactive: -0.185; that for GGCCCUGACAGAGGAAAAATT against Impa2, inactive: -1.16.
Take CCAGAGUAAGAGUAAAAGCTT against Mamdc2: the z-score is inactive: 1.27.
For the sequence GCCAGAAGAAUCUAUGUUATT against Tcp11x2, the z-score was inactive: 0.483.
For the sequence GGAGGAUCAAGCAAACUUUTT against Gm9801, the z-score was inactive: 1.95.
GCGCAAUGAACGGUUCUACTT against Prepl: the z-score was active: 3.96.
The value for GGCCAACGUGGAGUUAUCATT against Hsd17b10 was inactive: -0.435; that for GGCCCGGUAAAGUGGUAAGTT against Wdr20 was inactive: -1.27; that for GGACAUGUUGGAGAAGCAATT against B3galt6 was inactive: -1.56.
Regarding CCAGAAAAAAGAUUGUACATT against Hesx1, the z-score was inactive: -0.43.
The value for GCUAUGACACGAGAAGGCATT against Tpsab1 was inactive: 0.511; that for UUUACUAGACCUGAUGGCUTT against Olfr815 was inactive: 0.732.
The result for GCAACAAUUGCUAGCGUGGTT against Sec23ip reads inactive: 0.614; that for GGAGUGGGAAAACAACAAATT against Cpxm1, inactive: 0.914.
The result for CCCUUAAGUCUUUUUCCUATT against Celf2 reads inactive: -1.09.
As to GCGGUCUGUGGUCUUAAAUTT against She, the z-score was inactive: -0.449.
For the sequence GCUUUUGGGUUGUAAGAGATT against Ralgps2, the z-score is inactive: -1.42.
Regarding GCAAUCGUCAAAAAGAAUCTT against Abhd18, the z-score was inactive: -0.911.
The result for GGUUUGGAGAUAUCGUGGGTT against Bmper reads inactive: 0.0938; that for GGCAUCCGUGUGUCUCUAGTT against Amdhd2, inactive: 1.8.
On to GCUUUUGAAUGUGUGGACUTT against Ugt2b37, for which the z-score was inactive: -0.938.
GGUUAUCAAGAAAAUUGGGTT against Exo1: the z-score was inactive: -1.4.
The value for GUGACAGGAUAUGUUUCUATT against Cd226 was inactive: -1.14; that for GCUCUAUACCUUACGGUCCTT against Llgl2 was inactive: -0.774.
The result for GCGGGUAACCUCAUGUCUUTT against Phyhip reads inactive: 1.35.
Consider CGACGAAGACGUGAACAAGTT against Trappc3, for which the z-score was inactive: -0.368.
The value for CGCACAGAGAAUAAGGGAATT against Tcta was inactive: 0.843.
The result for GGAGCUGACAGAGAGAUUCTT against Ankrd40 reads active: -2.77.
The result for GGUGGAAACAGAAUGGUACTT against Cntn6 reads inactive: -0.547; that for GGCUGACAAUCCCAAUCUATT against Zcchc18, inactive: 0.198.
Take GGGACAUCAAUCGUAUUUUTT against Adar: the z-score is inactive: -1.83.
For GGCAUGAAGUUUGAAGCCATT against Cnnm2, the z-score is active: -2.47.
The value for GGUCUUUCCCAGGAUUCCATT against Rab19 was inactive: -0.837; that for GGAAACAACAACAAAUACATT against C1ql3 was inactive: 1.52.
The value for CCGUAUGUAACCAUCAAAGTT against Ncf1 was inactive: 0.281; that for GGCAAAAAAACACAAAGGCTT against Dock5 was inactive: -1.22; that for GCAUAGCUCAUCAUUCGGCTT against Wfdc5 was inactive: -0.925.
The result for GCACUUAAUGCAAUAUGGATT against Clock reads inactive: -0.579; that for CCUUCCAGGAUUUAUUGUGTT against Nr2f1, inactive: -0.315; that for GGUUCCUCCAUUGUUGAAATT against Olfr701, inactive: -1.14.
On to GGAGACUGUCAUGGCUGUGTT against Olfr397, for which the z-score was inactive: -1.84.
The value for GCUAAUUCCCUGAAAGAUGTT against Rnf13 was inactive: 0.59; that for GGACAGCUGGACCUAAAGGTT against Slco4a1 was inactive: -0.417.
The result for GCUAGAAUACACCAUAGAGTT against Nalcn reads inactive: 1.18; that for GCUGAGCUCGGCUUUUCUATT against Mall, inactive: 0.701; that for GGGCGACUAUGUGUGGACUTT against Mmp19, inactive: 0.822.
Take GGCUACACAGAAUAAUAAATT against Rpl14: the z-score was inactive: 0.839.
The value for GGAGGUAAAAAGUGCCUUATT against Olfr1040 was inactive: 0.202; that for GCAACAGGUUAGAAUAGACTT against Scd3 was inactive: -1.36.
For GGCAAUAAGAAUCAGAAAATT against Zfp160, the z-score was inactive: -0.0519.
On to CGAACAUCUCAGCAGUGAATT against Dapk3, for which the z-score was inactive: 0.299.
The value for CCAUUGACUCCUUCAUCUUTT against Olfr988 was inactive: 0.244.
Consider GCAGAUUUUGACUAAAGGATT against Sbds, for which the z-score was inactive: -0.747.
Take GGUCCUAAUUCGAAGCAGATT against Emc3: the z-score was inactive: -0.589.
Turning to CGGUAUCAACAUUCUGGCUTT against Cd300c, the z-score is inactive: -0.191.
The value for CGCAGAUGAUUAAGUUGGUTT against Olfr1000 was inactive: 0.961; that for GGAAGAGGCUGAAUCAGCUTT against Nup214 was inactive: -1.87; that for GCCUUUCAAUCCUGAUUAATT against Rgs10 was inactive: 0.942.
The value for GCGCAAUGCCAAGGUGUACTT against Msantd1 was inactive: 1.44; that for GGUGUGUGGUGGUUGGUAATT against St3gal6 was inactive: -0.205.
For GGUGUACUGAUUUUGAAGATT against Msh3, the z-score is inactive: 0.858.
The value for GGACAAGUUUGAUGGAUCGTT against Rcor3 was inactive: 1.1; that for CCAGGAAUCAGUCUAUACUTT against Lrrc15 was inactive: 1.45; that for GCUCGAGGCUUAGAAGACUTT against Hspb3 was active: 2.23.
The result for GGUUAAUAUUAGCAUCGUCTT against Zdhhc23 reads inactive: 0.908; that for GGCACCUCCUGUUACAUACTT against Prr36, inactive: 0.25; that for CCAGAACGGAAGAUGAUCATT against Slc4a1, inactive: -0.242.
As to GCCCAGUCAUUCCUACCAATT against Hoxc13, the z-score was inactive: 0.91.
On to CGAGCUAACAGCAUUGCUGTT against Ajuba, for which the z-score is inactive: 0.532.
CCGUCCUCAGUUAUCUCUATT against Sorcs3: the z-score was inactive: -0.835.
The result for GGAAUGUGAUGAUGUGAUUTT against Ppm1m reads inactive: -1.06; that for CACUCAGCUCAAUGACCUGTT against Ifna14, inactive: 0.0473.
On to GGGACUUCUGAUUAAAUUUTT against Skint9, for which the z-score was inactive: -1.51.
The result for GCUUUUCAAACACAGUAGATT against Dlx3 reads inactive: -0.708.
Turning to GGAGGGAAAAGAGAAGAAATT against Rbm10, the z-score was inactive: -0.623.
With GGGAGACCAUUGUUCAACUTT against Srpk3, the z-score is inactive: 0.451.
For GGAGAACUACAGUCUUAUUTT against Slc39a12, the z-score was inactive: 0.718.
The result for GGGUGUGUUGGAUACCUAUTT against Adig reads active: 2.03.
With GGAUGAUGACUUCCUAGGGTT against Cpne7, the z-score is inactive: -0.622.
The result for CCUCCAUUGCAUGUCCCAATT against Adam26b reads inactive: -0.812.
